Laboratory results from publication PMC2377097.
No constants are given. Whether binding was seen depends on the method and setting. Sequences can lack the tags named with a protein.

Chains of the proteins cited; added tags and fusions are not shown.
UniProt P0A6Z3: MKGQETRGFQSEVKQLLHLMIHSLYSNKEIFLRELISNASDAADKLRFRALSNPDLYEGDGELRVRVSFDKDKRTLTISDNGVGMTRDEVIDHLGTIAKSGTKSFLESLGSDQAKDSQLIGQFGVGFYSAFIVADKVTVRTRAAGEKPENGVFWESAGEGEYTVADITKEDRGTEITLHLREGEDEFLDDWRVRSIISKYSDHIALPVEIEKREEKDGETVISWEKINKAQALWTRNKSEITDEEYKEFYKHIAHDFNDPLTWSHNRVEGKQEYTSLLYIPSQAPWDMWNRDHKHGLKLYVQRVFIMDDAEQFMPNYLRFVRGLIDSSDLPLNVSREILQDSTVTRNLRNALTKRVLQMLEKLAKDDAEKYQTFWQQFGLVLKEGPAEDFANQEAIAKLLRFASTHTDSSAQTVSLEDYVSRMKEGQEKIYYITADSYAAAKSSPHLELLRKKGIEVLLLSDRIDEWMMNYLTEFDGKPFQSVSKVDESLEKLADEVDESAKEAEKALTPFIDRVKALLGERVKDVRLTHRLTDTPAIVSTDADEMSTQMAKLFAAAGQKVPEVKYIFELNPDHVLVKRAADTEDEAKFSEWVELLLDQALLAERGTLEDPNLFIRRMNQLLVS

Target: T1, Unc45b^Flag, bacteria expressed and purified (mouse) (UniProt Q8CGY6)
T1 sequence: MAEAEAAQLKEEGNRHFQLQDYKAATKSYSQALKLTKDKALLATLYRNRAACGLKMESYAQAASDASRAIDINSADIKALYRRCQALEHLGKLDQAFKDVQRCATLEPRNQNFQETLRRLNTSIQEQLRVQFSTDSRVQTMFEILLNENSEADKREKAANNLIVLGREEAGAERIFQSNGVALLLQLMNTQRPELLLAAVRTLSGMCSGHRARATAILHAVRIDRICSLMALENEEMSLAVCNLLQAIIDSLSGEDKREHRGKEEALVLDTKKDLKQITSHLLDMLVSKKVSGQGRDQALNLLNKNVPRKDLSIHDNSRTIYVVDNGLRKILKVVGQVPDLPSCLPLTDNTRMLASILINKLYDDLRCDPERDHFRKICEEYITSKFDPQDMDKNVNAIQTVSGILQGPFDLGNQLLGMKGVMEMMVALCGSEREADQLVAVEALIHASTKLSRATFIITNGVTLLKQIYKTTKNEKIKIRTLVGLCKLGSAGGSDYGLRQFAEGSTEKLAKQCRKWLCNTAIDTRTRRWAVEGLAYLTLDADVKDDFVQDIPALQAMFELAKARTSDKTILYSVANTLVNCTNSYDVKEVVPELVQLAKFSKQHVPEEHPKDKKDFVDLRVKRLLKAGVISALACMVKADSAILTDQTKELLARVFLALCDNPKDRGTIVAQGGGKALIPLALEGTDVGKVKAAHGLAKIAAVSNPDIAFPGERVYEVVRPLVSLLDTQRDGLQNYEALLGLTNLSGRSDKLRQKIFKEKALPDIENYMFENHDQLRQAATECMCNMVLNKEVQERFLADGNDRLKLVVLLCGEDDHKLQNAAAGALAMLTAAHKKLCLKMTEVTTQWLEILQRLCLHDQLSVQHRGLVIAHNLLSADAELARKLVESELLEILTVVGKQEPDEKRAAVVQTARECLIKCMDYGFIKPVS
Experiment: co-purification (ion-exchange chromatography); Unc45b^Flag purified to homogeneity from E. coli lysate

Question: For “bacterial Hsp90 homologue, HtpG (from UniProt P0A6Z3 1-624)”, which binding is on record?
Answer: no binding
